Results taken from patent CN117820472A.
Results are given in words; binding and its absence hold for the method and conditions named. Some entries that bind do so weakly or less than the wild type.

Sequences of proteins named here, by UniProt entry; tags and fusion partners are left off. A change or cut given only in a name is not applied to a line headed by its entry.
UniProt P10636: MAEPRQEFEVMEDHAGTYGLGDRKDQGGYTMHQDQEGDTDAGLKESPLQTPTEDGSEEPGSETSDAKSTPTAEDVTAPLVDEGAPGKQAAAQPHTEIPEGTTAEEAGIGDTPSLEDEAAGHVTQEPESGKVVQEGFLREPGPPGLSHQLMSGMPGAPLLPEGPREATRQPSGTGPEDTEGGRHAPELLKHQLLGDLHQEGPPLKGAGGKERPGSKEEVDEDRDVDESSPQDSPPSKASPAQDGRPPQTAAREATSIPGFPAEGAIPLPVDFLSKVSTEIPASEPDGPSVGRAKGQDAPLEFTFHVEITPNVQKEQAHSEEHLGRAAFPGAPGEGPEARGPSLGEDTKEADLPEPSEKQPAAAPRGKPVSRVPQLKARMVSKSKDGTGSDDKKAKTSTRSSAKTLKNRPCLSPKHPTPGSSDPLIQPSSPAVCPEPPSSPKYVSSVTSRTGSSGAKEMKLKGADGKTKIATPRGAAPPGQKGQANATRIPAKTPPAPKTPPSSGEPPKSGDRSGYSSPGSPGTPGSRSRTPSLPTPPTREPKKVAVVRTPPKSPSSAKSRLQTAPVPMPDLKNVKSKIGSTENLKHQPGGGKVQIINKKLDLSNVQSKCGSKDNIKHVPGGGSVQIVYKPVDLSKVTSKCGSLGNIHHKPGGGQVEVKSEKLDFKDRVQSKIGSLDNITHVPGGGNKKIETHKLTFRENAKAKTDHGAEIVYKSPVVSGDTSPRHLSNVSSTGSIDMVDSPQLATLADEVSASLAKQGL

Biological target: 经过磷酸化处理的全长Tau蛋白p-Tau (UniProt P10636)
Experiment: sandwich ELISA, fixed antibody paired with the p-Tau 181 antibodies

B1: Rabbit-Anti-Tau-mAb-A (antibody, V domains shown)
VH: QSVEESGGRLVKPDETLTLTCTVSGIDLSTYAMGWVRQAPGEGLEWIATIGISGGTYYASWAKGRFTISKTSTTVDLKMTSLTAADTATYFCASSRATTYPIWGPGTLVTVSS
VL: DIVMTQTASPVSAAVGGTVTINCQASQSISTALAWYQQKPGQPPKLLIYRASTLASGVPSRFSGSGSGTQFTLTISDLECADAATYYCQGDYYTKSTSYLNGFGGGTEVVVK
B1 was tested, and the binding was “binds”.
